## Results of single-concentration screens

Data taken from ChEMBL document CHEMBL3988442, “University of Dundee, Small-Polar-MMV Screening Library” (2021).

Mtb glucose medium: 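Whole-cell growth test on Mycobacterium tuberculosis, read after 3 days in glucose-containing 7H9 medium; the read-out is not stated. Concentration: 50 µM. Direction is inferred from retests: higher values go with more growth inhibition. Size under these conditions: about 69,000 compounds, about 760 of them at 50% or above in at least one test.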
Mtb cholesterol medium: 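Growth of Mycobacterium tuberculosis over 4 days (cholesterol / DPPC medium with tyloxapol); the read-out is not stated. Tested at 50 µM. Direction is inferred from retests: higher values go with more growth inhibition. Of about 69,000 compounds tested this way, about 370 (0.54%) reached 50% or more in at least one test.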

Each number is a percent effect as filed.
The record does not define 0% and 100%; most values in the screen are far below 50% and negative numbers occur (in some assays of this library far below -100).
Compounds were drawn at random from those tested, without regard to their results.
Two or more numbers in one place are separate tests of the same structure; such repeats can differ widely.

| structure | Mtb glucose medium | Mtb cholesterol medium |
|---|---|---|
| `CC(C)N(C)CC(=O)N(C)C(c1cccc(F)c1)c1ccccn1` (configuration not stated) | -75.62 | -55.74 |
| `COCCn1c(=O)n(Cc2ccc(Cl)s2)c2cc(C(=O)O)ccc21` | 13.91 & -5.25 | 9.059 |
| `Cc1ccc(S(=O)(=O)N2CCOc3ccccc32)cc1C(=O)O` | -36.04 | -25.76 |
| `COCCN1CCCC12CCN(Cc1cncn1C)CC2.O=C(O)C(F)(F)F.O=C(O)C(F)(F)F` | -3.552 & -15.29 | 3.448 |
| `O=C1CCCCN1Cc1cccc(OC(F)F)c1` | -7.564 | -11.05 |
| `[H][C@]12CC[C@]([H])(CN(S(=O)(=O)N(C)C)C1)N(Cc1csc(C(C)=O)c1)C2` | -4.304 & 1.719 | -11.91 |
| `CCn1cc2c(n1)C(COC)CN(C(=O)CCOc1ccccc1)C2` (configuration not stated) | -19.53 | -18.77 |
| `CC(C)c1nn(C)c(Cl)c1CNCc1ccc(N(C)C)nc1.Cl` | 15.57 | 10.86 |
| `C[C@@H]1CN(Cc2ccsc2)C[C@]12CCN(Cc1cccnc1)C2=O.O=C(O)C(F)(F)F.O=C(O)C(F)(F)F` | -7.63 | 15.84 |
| `CCCN1Cc2cc(Br)ccc2OCC1=O` | -43.94 | -11.06 |
| `CC(=O)N1CCC2(CC1)C(=O)N(c1ccc(C)nc1)CCN2CC(C)C` | -12.43 & 1.182 | 15.8 |
| `CN(c1ccc(F)c(F)c1)S(=O)(=O)c1cc2c(c(C(=O)O)c1)OCCO2` | -10.49 & 4.389 | -2.646 |
| `CC(C)Oc1ccc(CNC(=O)CC(F)(F)F)cc1F` | -6.312 | -4.664 |
| `Cc1nn(-c2ccccc2)nc1C(=O)NCC(c1ccsc1)N(C)C` (configuration not stated) | -5.448 | 18.12 |
| `COCCNc1nnc(-c2ccc(C)nc2)s1` | -23.9 | -8.728 |
| `O=C1CCCCCN1Cc1nc(C2(c3ccc(F)cc3)CCOC2)no1` (configuration not stated) | -31.21 | -9.591 |
| `O=C(NC1CCCN(CCc2ccccc2)C1)c1ccccn1` (configuration not stated) | 35.33 | 23.87 |
| `CC(C)CNC(=O)Nc1ccc(CN2CCOC2=O)cc1` | -28.92 & -12.45 | -11.5 |
| `Cc1cc(N2CCN(Cc3ccccc3)CC(O)C2)cc(C)n1` (configuration not stated) | -15.63 | 3.228 |
| `O=C(C1CCOC1)N1CCN(CC2CC2)c2ccccc21` (configuration not stated) | 1.266 | 7.811 |
| `Cc1ccccc1OCC(O)CN1CCC(c2ccn[nH]2)CC1` (configuration not stated) | -7.618 | 2.275 |
| `N#Cc1cccc(OCCN2CCOC(Cn3cccn3)C2)c1` (configuration not stated) | 21.85 | 14.75 |
| `COCC1CC2(CCN(C(=O)c3ccc(F)c(Cl)c3)CC2)CO1` (configuration not stated) | -2.396 & -0.8633 | -12.35 |
| `CC(C)Cc1nc(NC(=O)c2cc(-c3cccnc3)n[nH]2)n[nH]1` | 18.63 | 11.89 |
| `O=C(CCn1cncn1)NC1CCc2nccn2C1` (configuration not stated) | 4.456 | 1.19 |
| `Cc1nc(CN2CCOC3(CCCC3)C2)no1` | 17.36 | -7.398 |
| `CC(=O)Nc1ccc(CN2CCc3[nH]cnc3C2c2ccc(C)o2)cc1` (configuration not stated) | 10.9 & -1.661 | 3.097 & 10.75 |
| `CCN(C)Cc1n[nH]c(=O)n1-c1ccc(C)c(C)c1` | -23.73 & -6.538 | -11.01 |
| `[H][C@]12CN(Cc3cccs3)CCN1C[C@H](c1ccccc1)[C@H]2C(=O)NC` | 33.85 | 11.4 |
| `CC(C)c1cc(CN(C)C(=O)CN2CCNC2=O)no1` | -32.22 | -19.77 |
| `Cc1nccn1C1CCCN(C(=O)c2cnn(C)c2C2CC2)C1` (configuration not stated) | -0.6031 | -15.31 |
| `O=C(c1csc2nc(-c3ccc(Cl)cc3)cn12)N1CCCC(CO)C1` (configuration not stated) | 26.96 | 2.085 |
| `NC(=O)c1csc(C(=O)N2CCCC(n3cccn3)C2)c1` (configuration not stated) | -5.484 | -14.89 |
| `CCc1c(C)nc(C)nc1N1CCC(NCCSc2nnnn2C)CC1` | 12.22 & 3.139 | 4.852 |
| `O=C(NCCC(O)c1ccccc1)c1ccco1` (configuration not stated) | 37.69 | 29.75 |
| `Cc1nn2c(N3CCC(O)CC3)cc(-c3ccccc3)nc2c1C` | -2.694 | -18.44 |
| `COc1cccc(CNc2nc(C)cc(C)n2)c1OC` | -3.254 | -21.55 |
| `COCCn1cc(NC(=O)NC(C)CCc2ccccc2)ccc1=O` (configuration not stated) | -29.38 | 0.3347 |
| `Cc1ccc(NC(=O)C2CSCN2C(=O)c2cc[nH]n2)c(C)c1` (configuration not stated) | 1.591 | 0.487 |
| `CN(Cc1ccccc1)CC(C)(C)NC(=O)c1cnccn1` | 33.79 | 30.3 |
| `O=C(NCc1ccccc1)[C@@H]1Cc2[nH]cnc2CN1CC1CC1` | 4.299 & 1.875 | 12.24 |